Laboratory results reported in patent publication US20080118504A1 (University of California, published 2008).
Positions count from the first letter of the chain named. These are yes or no findings as the source states them, for the method shown. Some results given as binding are weak or reduced against the parent protein; the word gives no strength. For some assays here: Sequences can lack the tags named with a protein. Blank lines part the entries; values can stand above or below the binder they belong to.

The chains behind the UniProt entries cited, without tags or fusion partners. Where a name states a change or a piece, a line headed by the entry shows the natural chain unless it says otherwise. A line that says so, or that is headed by a name, gives the form on record, which may keep a tag or linker. Residues count along the entry.
UniProt O00206: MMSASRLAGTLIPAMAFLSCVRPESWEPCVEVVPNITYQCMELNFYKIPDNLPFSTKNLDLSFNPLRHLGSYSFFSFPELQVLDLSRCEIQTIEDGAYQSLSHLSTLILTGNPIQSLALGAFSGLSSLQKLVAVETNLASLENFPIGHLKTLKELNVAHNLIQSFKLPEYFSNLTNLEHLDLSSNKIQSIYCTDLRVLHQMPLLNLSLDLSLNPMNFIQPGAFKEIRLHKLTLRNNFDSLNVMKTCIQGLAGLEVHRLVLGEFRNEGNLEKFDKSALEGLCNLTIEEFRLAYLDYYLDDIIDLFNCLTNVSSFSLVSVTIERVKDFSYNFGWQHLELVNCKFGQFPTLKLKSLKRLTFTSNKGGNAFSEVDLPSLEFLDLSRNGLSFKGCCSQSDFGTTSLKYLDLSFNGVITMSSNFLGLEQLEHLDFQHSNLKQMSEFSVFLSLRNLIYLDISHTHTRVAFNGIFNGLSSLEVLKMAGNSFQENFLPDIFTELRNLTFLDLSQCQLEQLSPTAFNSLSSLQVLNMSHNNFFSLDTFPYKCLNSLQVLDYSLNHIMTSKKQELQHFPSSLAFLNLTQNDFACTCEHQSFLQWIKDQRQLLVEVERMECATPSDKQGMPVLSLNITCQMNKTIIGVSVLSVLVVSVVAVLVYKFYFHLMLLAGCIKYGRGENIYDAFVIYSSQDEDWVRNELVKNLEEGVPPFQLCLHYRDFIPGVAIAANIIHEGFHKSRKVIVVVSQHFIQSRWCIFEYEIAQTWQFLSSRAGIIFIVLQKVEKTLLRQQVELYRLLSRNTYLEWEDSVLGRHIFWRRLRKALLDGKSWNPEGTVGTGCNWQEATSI
TLR4 containing N-terminal HA-tag, stably transfected in CHO (EL1) cells: residues 24-839 of O00206
extracellular portion of TLR4 with a 6His tag and S-tag: residues 24-631 of O00206

How the values were obtained:
[1] = molecular target: TLR4 containing N-terminal HA-tag, stably transfected in CHO (EL1) cells (UniProt O00206); assay: FACS with anti-His on TLR4 transfected cells
[2] = molecular target: TLR4 containing N-terminal HA-tag, stably transfected in CHO (EL1) cells (UniProt O00206); assay: FACS with anti-His on TLR4 transfected cells, 16 hr incubation
[3] = molecular target: TLR4 containing N-terminal HA-tag, stably transfected in CHO (EL1) cells (UniProt O00206); assay: FACS with anti-His on TLR4 transfected EL1 (CHO) cells, 15 min incubation
[4] = molecular target: TLR4 containing N-terminal HA-tag, stably transfected in CHO (EL1) cells (UniProt O00206); assay: FACS with anti-His on TLR4 transfected cells, 15 min and 16 hr incubation
[5] = molecular target: extracellular portion of TLR4 with a 6His tag and S-tag (UniProt O00206); assay: co-expression in High Five insect cells, capture on S-agarose, non-reducing SDS-PAGE and anti-His western blot
[6] = molecular target: TLR4 containing N-terminal HA-tag, stably transfected in CHO (EL1) cells (UniProt O00206); assay: FACS on TLR4 transfected cells and pull-down with extracellular TLR4
[7] = molecular target: TLR4 containing N-terminal HA-tag, stably transfected in CHO (EL1) cells (UniProt O00206); assay: FACS with anti-His on TLR4 transfected EL-1 (CHO) cells
[8] = molecular target: extracellular portion of TLR4 with a 6His tag and S-tag (UniProt O00206); assay: co-expression and purification on S-agarose; same result when the purified proteins were mixed and immunoprecipitated with S-agarose
[9] = molecular target: TLR4 containing N-terminal HA-tag, stably transfected in CHO (EL1) cells (UniProt O00206); assay: FACS with anti-His on TLR4 transfected EL1 cells, 5 ug/ml of gel filtration fractions of sMD-2, 15 min

binding [4]: binds | binding [1]: binds
B3: unglycosylated MD-2 mutant NQ (N26 and N114 replaced with glutamine) (protein, not shown: small tags and cut ends)
chain: EAQKQYWVCQSSDASISYTYCDKMQYPISINVNPCIELKGSKGLLHIFYIPRRDLKQLYFNLYITVNTMNLPKRKEVICRGSDDDYSFCRALKGETVQTTISFSFKGIKFSKGKYKCVVEAISGSPEEMLFCLEFVILHQPNSN

binding [5]: binds | binding [6]: binds | binding [7]: binds | binding [2]: binds | binding [8]: binds | binding [9]: binds
B4: soluble MD-2 wild type (human MD-2 with C-terminal His-tag, from insect cells) (other)
chain: B3 chain with Q10N, Q98N
notes: Expressed with the gp64 signal peptide in place of its own; The purified protein is a mixture of monomer and disulfide-linked oligomers; also called sMD-2; sMD-2 WT; not shown: C-terminal V5/His tag of the vector (pBlueBac4.5/V5-His or pBac11)

Further lines, the binder ahead of its results:

B1: soluble MD-2 alanine replacement mutant 125-129 (protein, not shown: small tags and cut ends)
chain: QKQYWVCNSSDASISYTYCDKMQYPISINVNPCIELKGSKGLLHIFYIPRRDLKQLYFNLYITVNTMNLPKRKEVICRGSDDDYSFCRALKGETVNTTISFSFKGIAAAAAKYKCVVEAISGSPEEMLFCLEFVILHQPNSN
binding [1]: binds | binding [2]: binds | binding [3]: binds

B2: soluble MD-2 alanine replacement mutant 38-42 (protein, not shown: small tags and cut ends)
chain: B3 chain with Q10N, D22A, K23A, M24A, Q25A, Y26A, Q98N
binding [1]: binds | binding [2]: binds | binding [3]: binds
